Our source for the binding values is article PMC5707026.

Sequences of proteins named here, by UniProt entry; tags and fusion partners are left off. Residues count along the entry.
UniProt Q07008, residues 19-2531: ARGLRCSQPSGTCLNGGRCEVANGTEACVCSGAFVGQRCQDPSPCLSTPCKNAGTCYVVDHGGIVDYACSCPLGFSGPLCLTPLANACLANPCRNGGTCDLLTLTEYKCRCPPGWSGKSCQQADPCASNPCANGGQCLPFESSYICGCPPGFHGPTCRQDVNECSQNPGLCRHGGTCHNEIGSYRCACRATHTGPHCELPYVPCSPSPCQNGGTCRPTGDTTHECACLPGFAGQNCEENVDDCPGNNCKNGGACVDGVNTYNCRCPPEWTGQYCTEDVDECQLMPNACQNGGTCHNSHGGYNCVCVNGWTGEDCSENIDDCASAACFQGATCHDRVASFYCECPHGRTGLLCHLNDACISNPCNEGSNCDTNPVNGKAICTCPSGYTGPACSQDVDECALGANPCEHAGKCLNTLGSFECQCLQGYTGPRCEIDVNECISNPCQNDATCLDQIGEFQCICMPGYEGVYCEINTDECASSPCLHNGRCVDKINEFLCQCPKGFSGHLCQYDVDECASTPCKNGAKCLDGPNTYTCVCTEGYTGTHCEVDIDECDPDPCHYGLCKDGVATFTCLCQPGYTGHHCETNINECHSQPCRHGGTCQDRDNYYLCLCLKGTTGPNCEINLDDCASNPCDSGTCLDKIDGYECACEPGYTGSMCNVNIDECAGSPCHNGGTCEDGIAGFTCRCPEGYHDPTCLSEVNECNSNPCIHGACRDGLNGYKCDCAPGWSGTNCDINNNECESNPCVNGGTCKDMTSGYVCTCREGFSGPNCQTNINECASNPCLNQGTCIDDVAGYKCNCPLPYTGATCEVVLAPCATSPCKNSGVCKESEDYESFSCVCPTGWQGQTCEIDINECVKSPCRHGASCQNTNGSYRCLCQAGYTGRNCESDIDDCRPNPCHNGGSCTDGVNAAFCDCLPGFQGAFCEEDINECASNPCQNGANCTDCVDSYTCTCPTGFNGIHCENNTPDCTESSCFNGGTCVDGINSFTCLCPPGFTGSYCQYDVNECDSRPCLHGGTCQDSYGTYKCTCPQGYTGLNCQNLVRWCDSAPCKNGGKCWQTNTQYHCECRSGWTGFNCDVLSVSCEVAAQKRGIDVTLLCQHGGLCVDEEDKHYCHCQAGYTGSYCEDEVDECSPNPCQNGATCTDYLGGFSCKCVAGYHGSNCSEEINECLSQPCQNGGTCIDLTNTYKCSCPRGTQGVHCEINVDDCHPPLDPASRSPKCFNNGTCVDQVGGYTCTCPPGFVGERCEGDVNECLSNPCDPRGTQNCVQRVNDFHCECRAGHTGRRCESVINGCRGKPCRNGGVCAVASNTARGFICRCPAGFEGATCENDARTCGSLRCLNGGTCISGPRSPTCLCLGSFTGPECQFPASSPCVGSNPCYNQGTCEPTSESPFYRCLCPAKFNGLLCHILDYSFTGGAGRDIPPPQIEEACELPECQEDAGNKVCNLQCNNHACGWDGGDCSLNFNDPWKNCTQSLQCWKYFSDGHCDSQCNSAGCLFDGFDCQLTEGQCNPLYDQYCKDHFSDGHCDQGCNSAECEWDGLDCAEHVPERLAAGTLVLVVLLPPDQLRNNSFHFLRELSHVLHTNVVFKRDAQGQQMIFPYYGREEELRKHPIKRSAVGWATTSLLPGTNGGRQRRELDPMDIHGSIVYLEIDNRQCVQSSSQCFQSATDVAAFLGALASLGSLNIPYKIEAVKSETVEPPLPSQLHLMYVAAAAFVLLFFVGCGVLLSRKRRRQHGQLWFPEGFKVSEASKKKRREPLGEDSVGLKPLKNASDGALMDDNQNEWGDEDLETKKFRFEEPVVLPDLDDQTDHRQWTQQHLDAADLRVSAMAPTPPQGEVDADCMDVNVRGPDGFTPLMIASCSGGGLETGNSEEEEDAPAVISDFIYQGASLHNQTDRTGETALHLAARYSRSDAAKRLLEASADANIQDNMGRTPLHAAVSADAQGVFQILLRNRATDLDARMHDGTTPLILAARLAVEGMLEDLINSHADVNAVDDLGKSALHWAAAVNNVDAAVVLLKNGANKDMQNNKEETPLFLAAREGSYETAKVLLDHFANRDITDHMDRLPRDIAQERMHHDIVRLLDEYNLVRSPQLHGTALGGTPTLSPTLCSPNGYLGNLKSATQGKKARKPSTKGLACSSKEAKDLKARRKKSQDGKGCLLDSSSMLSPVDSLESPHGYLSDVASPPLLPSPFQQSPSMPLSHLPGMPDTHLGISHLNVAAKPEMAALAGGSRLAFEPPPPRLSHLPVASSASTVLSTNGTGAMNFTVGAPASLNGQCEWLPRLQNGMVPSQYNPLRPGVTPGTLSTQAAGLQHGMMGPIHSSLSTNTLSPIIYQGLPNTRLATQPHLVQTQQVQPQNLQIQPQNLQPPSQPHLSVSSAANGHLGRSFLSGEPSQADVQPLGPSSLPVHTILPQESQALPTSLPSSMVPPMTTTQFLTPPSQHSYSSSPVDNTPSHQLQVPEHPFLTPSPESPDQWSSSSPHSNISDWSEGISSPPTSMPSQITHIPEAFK

No constants are given. Whether binding was seen depends on the method and setting. In cells and extracts the contact can be indirect. Some entries that bind do so weakly or less than the wild type. Where a sequence is shown, tags or fusion partners need not be part of it.

This assay deals with Notch1 full-length form (Notch1-FL) (rat (endogenous in rat brain)) (UniProt Q07008). Description: co-IP; brain samples of ICH rats transfected in vivo with GFP-Botch plasmids, lysed in ice-cold RIPA buffer; lysate with specific antibodies or normal IgG 1 h at 4 °C, protein A+G agarose overnight at 4 °C, immunoblot; which antibody precipitated is not stated. Background: In western blotting, separated proteins are transferred to a membrane and probed.

B1: wild type GFP-Botch (rat Botch, NPG7/Chac1) (protein, UniProt B3STU3 1-222)
chain: MKQESAAQSTPPPSLSPAPSAQPSWEDGDPQALWIFGYGSLVWKPDFAYSDSRVGFVRGYSRRFWQGDTFHRGSDKMPGRVVTLLEDHEGCTWGVAYQVRGEQVSEALKYLNVREAVLGGYDTKEVTFYPQDTPDQPLTALAYVATPQNPGYLGPAPEEVIATQILACRGFSGHNLEYLLRLADFMQLCGPQAQDEHLEAIVDAVGSLLPCSYLSEQPLALI
On to B1, for which the binding result is listed as “binds”.
